Laboratory results from US10421778B2, “Isoform-selective lysine deacetylase inhibitors” (WASHINGTON UNIVERSITY, priority 2015, dated 2019).

Test system: Jurkat and primary T cells
Test: Western blot for acetylated histone H3 and acetylated tubulin
Type: cell-based
Conditions: 8 hours

O=C(CCCCCCC(=O)Nc1ccccc1)NO [SAHA, suberoylanilide hydroxamic acid]
inhibition of deacetylation of histone H3 and tubulin: inhibit deacetylation of both histone H3 and tubulin
